# Measurements taken from the supplement of paper PMC10849652.
# Amino acid sequences for entries named in this document (tags omitted). A change or cut given only in a name is not applied to a line headed by its entry.
# UniProt Q6P587: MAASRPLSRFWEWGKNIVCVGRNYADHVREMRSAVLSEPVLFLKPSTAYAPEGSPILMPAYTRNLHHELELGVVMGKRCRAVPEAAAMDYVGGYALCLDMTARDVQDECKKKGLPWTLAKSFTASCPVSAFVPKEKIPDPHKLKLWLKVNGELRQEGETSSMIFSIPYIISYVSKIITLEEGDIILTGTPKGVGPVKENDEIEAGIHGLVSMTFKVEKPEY
# UniProt Q9UNN5: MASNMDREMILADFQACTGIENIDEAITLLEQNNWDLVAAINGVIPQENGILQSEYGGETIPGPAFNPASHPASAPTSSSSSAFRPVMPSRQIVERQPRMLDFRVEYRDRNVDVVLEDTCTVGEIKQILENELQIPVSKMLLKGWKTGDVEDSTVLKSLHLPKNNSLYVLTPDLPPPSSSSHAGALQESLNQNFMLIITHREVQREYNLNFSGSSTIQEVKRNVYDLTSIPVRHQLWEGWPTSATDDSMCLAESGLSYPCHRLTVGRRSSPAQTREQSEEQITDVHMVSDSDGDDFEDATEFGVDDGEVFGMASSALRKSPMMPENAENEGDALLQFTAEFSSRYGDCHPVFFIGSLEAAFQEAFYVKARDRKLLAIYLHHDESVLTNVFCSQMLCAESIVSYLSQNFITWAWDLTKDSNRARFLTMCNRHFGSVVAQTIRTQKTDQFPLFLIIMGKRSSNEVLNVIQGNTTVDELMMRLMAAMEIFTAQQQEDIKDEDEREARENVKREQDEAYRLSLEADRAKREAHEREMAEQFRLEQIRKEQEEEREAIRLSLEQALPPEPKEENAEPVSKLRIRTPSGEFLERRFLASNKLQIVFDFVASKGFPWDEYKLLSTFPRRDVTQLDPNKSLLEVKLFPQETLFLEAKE
# UniProt Q96ND0: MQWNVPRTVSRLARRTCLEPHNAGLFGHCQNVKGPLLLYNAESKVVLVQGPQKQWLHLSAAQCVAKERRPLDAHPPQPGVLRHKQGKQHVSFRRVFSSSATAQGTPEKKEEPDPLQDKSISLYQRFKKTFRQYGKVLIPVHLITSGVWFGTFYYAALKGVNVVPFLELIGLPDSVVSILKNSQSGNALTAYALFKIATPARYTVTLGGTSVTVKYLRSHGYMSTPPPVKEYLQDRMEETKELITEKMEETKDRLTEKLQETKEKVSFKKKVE
# UniProt P12259: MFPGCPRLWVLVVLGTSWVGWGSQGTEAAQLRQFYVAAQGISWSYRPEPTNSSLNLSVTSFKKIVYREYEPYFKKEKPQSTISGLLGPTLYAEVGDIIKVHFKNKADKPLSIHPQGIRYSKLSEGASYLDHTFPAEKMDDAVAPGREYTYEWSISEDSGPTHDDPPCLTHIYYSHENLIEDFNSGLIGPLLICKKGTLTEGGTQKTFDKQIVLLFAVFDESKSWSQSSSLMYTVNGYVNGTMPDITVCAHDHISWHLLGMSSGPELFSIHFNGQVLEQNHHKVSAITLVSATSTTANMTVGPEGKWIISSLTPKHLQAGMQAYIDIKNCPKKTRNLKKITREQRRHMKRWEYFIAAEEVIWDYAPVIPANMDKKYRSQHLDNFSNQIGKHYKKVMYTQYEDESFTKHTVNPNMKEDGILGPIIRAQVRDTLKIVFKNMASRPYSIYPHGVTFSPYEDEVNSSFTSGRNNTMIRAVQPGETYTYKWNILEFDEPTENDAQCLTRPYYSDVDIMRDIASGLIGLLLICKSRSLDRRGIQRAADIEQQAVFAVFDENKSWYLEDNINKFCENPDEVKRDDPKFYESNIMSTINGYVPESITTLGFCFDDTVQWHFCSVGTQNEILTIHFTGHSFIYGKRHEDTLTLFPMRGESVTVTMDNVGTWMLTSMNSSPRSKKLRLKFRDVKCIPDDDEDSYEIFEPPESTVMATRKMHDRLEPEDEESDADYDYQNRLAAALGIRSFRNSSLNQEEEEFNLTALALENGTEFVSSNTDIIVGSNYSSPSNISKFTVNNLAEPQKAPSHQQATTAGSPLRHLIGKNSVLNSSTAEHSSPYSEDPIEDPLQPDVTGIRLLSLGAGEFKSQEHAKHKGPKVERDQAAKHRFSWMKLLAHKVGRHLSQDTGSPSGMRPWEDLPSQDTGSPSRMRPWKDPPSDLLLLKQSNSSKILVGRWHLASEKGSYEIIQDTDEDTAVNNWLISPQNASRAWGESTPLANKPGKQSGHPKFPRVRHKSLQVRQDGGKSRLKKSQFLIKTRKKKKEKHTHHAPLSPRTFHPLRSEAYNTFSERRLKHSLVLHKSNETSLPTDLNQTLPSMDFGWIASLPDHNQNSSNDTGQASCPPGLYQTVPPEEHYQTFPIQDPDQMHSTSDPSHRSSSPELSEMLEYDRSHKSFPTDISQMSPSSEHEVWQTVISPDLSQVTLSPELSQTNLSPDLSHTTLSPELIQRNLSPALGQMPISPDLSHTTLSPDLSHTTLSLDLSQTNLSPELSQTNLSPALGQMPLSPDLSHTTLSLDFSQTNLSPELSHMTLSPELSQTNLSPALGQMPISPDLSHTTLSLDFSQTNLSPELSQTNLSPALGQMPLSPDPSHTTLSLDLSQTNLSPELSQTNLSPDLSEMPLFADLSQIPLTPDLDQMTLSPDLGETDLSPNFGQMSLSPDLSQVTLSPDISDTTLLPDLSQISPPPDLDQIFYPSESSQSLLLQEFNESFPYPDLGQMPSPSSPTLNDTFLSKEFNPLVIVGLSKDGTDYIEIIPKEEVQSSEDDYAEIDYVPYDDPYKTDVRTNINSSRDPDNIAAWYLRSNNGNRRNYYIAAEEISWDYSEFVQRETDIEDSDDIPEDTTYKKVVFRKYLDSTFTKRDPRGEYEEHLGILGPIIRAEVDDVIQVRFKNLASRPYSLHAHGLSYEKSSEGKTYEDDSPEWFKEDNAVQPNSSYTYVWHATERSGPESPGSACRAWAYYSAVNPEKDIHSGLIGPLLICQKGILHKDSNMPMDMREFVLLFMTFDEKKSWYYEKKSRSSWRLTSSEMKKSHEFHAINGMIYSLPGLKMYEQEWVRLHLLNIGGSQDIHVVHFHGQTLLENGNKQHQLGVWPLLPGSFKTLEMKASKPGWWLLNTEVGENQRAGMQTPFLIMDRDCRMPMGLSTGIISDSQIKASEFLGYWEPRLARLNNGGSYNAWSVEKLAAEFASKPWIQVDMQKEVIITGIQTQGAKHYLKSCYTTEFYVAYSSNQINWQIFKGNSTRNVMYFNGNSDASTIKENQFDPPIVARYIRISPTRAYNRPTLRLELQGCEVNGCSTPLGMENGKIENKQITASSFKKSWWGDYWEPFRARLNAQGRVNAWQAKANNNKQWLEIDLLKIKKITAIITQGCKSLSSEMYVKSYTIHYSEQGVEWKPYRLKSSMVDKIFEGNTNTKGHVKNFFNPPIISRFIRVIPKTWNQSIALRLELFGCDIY
# UniProt Q96HE7: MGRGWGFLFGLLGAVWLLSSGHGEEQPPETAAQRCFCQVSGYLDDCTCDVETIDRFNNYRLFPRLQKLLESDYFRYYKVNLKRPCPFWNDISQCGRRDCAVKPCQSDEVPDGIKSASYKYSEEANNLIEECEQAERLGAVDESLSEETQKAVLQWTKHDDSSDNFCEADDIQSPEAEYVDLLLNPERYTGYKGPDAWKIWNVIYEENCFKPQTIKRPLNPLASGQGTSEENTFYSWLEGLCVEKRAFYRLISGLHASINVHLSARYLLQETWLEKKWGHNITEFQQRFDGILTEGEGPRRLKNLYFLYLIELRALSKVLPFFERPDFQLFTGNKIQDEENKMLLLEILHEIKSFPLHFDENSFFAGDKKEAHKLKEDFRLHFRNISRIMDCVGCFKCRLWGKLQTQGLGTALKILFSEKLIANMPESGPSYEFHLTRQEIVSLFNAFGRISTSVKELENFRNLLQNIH
# UniProt Q9NVQ4: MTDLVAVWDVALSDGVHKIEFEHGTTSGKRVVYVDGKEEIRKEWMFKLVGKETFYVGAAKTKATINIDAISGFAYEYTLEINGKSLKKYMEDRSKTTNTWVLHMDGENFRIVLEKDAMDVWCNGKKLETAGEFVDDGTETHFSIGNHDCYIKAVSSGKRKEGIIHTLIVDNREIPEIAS
# UniProt Q86UY5: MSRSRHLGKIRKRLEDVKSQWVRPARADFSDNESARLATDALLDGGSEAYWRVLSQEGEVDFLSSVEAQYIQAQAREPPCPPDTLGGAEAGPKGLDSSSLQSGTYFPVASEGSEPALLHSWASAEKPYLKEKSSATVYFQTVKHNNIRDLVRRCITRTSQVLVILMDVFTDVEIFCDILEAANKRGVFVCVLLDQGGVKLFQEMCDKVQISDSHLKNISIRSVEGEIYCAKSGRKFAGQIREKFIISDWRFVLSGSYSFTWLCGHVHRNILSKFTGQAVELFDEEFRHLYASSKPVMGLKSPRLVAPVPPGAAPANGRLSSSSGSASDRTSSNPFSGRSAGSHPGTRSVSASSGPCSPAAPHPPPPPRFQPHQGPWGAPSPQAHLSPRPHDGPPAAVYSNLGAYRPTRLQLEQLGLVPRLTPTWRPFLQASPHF
# UniProt Q13158: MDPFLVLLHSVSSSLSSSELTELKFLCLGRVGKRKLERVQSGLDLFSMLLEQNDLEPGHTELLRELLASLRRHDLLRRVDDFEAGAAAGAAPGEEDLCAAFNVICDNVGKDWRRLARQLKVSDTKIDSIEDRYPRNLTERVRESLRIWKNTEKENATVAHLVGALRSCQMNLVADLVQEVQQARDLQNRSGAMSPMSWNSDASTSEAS
# UniProt Q96A65: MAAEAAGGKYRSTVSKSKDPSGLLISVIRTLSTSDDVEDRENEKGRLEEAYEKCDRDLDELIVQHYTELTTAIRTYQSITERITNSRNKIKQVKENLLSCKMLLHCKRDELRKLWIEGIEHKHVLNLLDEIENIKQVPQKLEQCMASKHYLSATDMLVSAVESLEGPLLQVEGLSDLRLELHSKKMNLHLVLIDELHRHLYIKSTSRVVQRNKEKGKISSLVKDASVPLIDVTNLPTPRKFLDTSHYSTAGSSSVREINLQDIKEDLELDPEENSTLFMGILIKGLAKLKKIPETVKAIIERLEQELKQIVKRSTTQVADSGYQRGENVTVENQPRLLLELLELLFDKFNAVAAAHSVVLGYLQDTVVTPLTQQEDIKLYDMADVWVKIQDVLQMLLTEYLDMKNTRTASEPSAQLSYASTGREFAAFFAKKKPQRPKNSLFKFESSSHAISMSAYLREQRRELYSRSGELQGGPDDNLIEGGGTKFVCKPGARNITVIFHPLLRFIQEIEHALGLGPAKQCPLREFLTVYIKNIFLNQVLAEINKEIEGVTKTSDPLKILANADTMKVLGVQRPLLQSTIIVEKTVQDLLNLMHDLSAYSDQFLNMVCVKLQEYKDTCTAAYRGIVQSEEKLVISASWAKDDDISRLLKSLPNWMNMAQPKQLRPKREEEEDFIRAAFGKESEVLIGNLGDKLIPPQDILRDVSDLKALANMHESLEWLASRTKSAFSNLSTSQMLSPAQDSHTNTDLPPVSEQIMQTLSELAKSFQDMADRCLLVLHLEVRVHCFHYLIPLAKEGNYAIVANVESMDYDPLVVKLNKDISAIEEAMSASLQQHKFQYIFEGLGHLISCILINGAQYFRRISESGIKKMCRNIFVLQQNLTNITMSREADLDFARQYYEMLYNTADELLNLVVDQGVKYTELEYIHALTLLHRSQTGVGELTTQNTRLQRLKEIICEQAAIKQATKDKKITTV
# UniProt Q9Y624, whole entry, looked up, stated change not applied: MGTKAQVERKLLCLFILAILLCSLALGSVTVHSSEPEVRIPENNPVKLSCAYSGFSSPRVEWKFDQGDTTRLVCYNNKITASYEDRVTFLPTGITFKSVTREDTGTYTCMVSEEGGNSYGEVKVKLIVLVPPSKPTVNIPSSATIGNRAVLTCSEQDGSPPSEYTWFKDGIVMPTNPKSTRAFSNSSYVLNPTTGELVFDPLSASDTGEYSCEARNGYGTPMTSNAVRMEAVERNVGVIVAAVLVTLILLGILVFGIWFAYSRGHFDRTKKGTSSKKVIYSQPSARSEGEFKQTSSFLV
# UniProt P11474: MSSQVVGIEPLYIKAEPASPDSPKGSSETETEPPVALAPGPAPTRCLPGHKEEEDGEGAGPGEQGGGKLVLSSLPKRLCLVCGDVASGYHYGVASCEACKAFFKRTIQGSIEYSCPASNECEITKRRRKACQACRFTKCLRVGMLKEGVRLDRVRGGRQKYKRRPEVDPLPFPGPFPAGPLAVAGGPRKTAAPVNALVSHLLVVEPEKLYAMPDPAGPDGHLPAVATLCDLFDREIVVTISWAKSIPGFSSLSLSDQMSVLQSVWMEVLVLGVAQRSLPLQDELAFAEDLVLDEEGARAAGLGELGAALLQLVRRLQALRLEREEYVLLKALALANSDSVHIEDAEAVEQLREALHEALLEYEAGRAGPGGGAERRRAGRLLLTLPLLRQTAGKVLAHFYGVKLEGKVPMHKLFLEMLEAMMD
# The other results are listed elsewhere or left out.
# Experiments:
# Assay in all cases: log2 fold change, soluble protein after heating vs DMSO (PISA); higher = thermal stabilisation; K562 lysate, 10 uM; active = over 0.2 and 3.5 SD of the protein, either way, in both replicates (recomputed)
# [1] = compound: CCCS(=O)(=O)Nc1ccc(F)c(C(=O)c2c[nH]c3ncc(-c4ccc(Cl)cc4)cc23)c1F [vemurafenib]
# In short: (§1)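 A 30 min treatment with 10 μM compound was applied to crude K562 extract at 1 mg/mL protein in PBS pH 7.4 with 1 mM MgCl2. Heating for 3 min spanned 48°C-58°C, after which aliquots were pooled, adjusted to 0.5% NP-40 at 4°C and spun at 21,000xg for 90 min. TMTpro 16plex LC-MS/MS of the supernatant, with channel sums equalised, gave values recorded as log-two fold change in thermal stability against solvent controls, from duplicates.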
# [2] = compound: CCCS(=O)(=O)Nc1ccc(F)c(C(=O)c2c[nH]c3ncc(Cl)cc23)c1F
# In short: as §1
# [3] = compound: CCN(CCCOc1ccc2c(Nc3cc(CC(=O)Nc4cccc(F)c4)[nH]n3)ncnc2c1)CCOP(=O)(O)O [barasertib]
# In short: as §1
# [4] = compound: CC[C@@H]1C(=O)N(C)c2cnc(Nc3ccc(C(=O)NC4CCN(C)CC4)cc3OC)nc2N1C1CCCC1
# In short: as §1
# [5] = compound: CC[C@@H]1C(=O)N(C)c2cnc(Nc3ccc(C(=O)N[C@H]4CC[C@H](N5CCN(CC6CC6)CC5)CC4)cc3OC)nc2N1C(C)C [volasertib]
# In short: as §1
# [6] = compound: CCn1c(C(=O)N(C2CC2)C2CC2)cc2c3c(ncn3C)c(Nc3cc(C)n(C)n3)nc21
# In short: as §1
# [7] = compound: CCn1cc(-c2ccnc3[nH]c(-c4cccc(CN(C)C)c4)cc23)c(-c2ccc(NC(=O)N(C)C)cc2)n1
# In short: as §1
# [8] = compound: CN1CCC(CNc2ccc3ncc(-c4cccc(OC(F)(F)F)c4)n3n2)CC1
# In short: as §1
# [9] = compound: CN1CCN(CCOc2cc(OC3CCOCC3)c3c(Nc4c(Cl)ccc5c4OCO5)ncnc3c2)CC1 [saracatinib]
# In short: as §1
# [10] = compound: CN1CCN(c2nc(C3=C(c4c[nH]c5ccccc45)C(=O)NC3=O)c3ccccc3n2)CC1 [sotrastaurin]
# In short: as §1
# [11] = compound: CN1CC[C@H](c2c(O)cc(O)c3c(=O)cc(-c4ccccc4Cl)oc23)[C@H](O)C1 [alvocidib]
# In short: as §1
# [12] = compound: CN1CCc2c(c3ccccc3n2Cc2ccc(C(=O)NO)cc2)C1 [Tubastatin A]
# In short: as §1
# [13] = compound: CNC(=O)C1=CC=CC=C1NC2=NC(=NC=C2Cl)NC3=C(C=C(C=C3)N4CCOCC4)OC
# In short: as §1
# [14] = compound: CNC(=O)c1ccc(Nc2ncc(C(F)(F)F)c(NCc3nccnc3N(C)S(C)(=O)=O)n2)cc1 [defactinib]
# In short: as §1
# [15] = compound: CNc1nc(-c2ccc3c(N)n[nH]c3c2)cc(N2C[C@@H](C(=O)NC3CCCCC3)CC[C@H]2C)n1
# In short: as §1
# [16] = compound: COC(=O)N[C@@H](C)CNc1nccc(-c2cn(C(C)C)nc2-c2cc(Cl)cc(NS(C)(=O)=O)c2F)n1 [encorafenib]
# In short: as §1
# [17] = compound: COC(=O)[C@H](CCSC)NC(=O)C1=C(C=C(C=C1)NC[C@H](CS)N)C2=CC=CC=C2
# In short: as §1
# [18] = compound: COc1cc(Nc2ncc3c(n2)-c2ccc(Cl)cc2C(c2c(F)cccc2OC)=NC3)ccc1C(=O)O [alisertib]
# In short: as §1
# [19] = compound: COc1cc2nc(-c3cc(F)ccc3O)nc(N[C@@H]3CNC[C@H]3C(C)(C)O)c2cc1OC
# In short: as §1
# [20] = compound: COc1cc2ncnc(Nc3ccc(F)c(Cl)c3)c2cc1OCCCN1CCOCC1 [gefitinib]
# In short: as §1
Target,log2 fold change [1],log2 fold change [2],log2 fold change [3],log2 fold change [4],log2 fold change [5],log2 fold change [6],log2 fold change [7],log2 fold change [8],log2 fold change [9],log2 fold change [10],log2 fold change [11],log2 fold change [12],log2 fold change [13],log2 fold change [14],log2 fold change [15],log2 fold change [16],log2 fold change [17],log2 fold change [18],log2 fold change [19],log2 fold change [20]
FAHD1 (UniProt Q6P587),inactive: 0.171,inactive: 0.024,inactive: 0.01,inactive: 0.233,inactive: -0.033,inactive: -0.132,inactive: -0.211,inactive: 0.254,inactive: 0.019,inactive: 0.028,inactive: -0.122,inactive: 0.136,inactive: 0.05,inactive: -0.066,inactive: 0.165,inactive: -0.002,inactive: 0.043,inactive: -0.08,inactive: -0.002,inactive: -0.01
ERMP1 (UniProt Q7Z2K6),inactive: 0.032,inactive: 0.029,inactive: 0.021,inactive: 0.01,inactive: 0.04,inactive: -0.02,inactive: -0.114,inactive: 0.082,inactive: 0.012,inactive: -0.02,inactive: -0.024,inactive: 0.065,inactive: 0.032,inactive: -0.022,inactive: 0.058,inactive: 0.044,inactive: -0.035,inactive: -0.002,inactive: -0.058,inactive: 0.01
FAF1 (UniProt Q9UNN5),inactive: -0.006,inactive: 0.014,inactive: -0.001,inactive: 0.013,inactive: 0.011,inactive: 0.003,inactive: 0.002,inactive: 0.013,inactive: -0.006,inactive: 0.024,inactive: -0.017,inactive: 0,inactive: -0.012,inactive: 0.011,inactive: -0.04,inactive: 0.043,inactive: -0.048,inactive: -0.026,inactive: -0.01,inactive: 0
EXOC1 (UniProt Q9NV70),inactive: 0,inactive: 0.027,inactive: 0.051,inactive: -0.106,inactive: -0.03,inactive: 0.082,inactive: 0.053,inactive: -0.119,inactive: 0,inactive: 0.02,inactive: 0.01,inactive: -0.139,inactive: 0.006,inactive: 0.022,inactive: -0.086,inactive: 0.014,inactive: 0.012,inactive: 0.007,inactive: -0.015,inactive: 0.015
FAM210A (UniProt Q96ND0),inactive: 0.021,inactive: -0.016,inactive: -0.045,inactive: 0.036,inactive: 0.051,inactive: 0.031,inactive: -0.032,inactive: 0.039,inactive: 0,inactive: 0.014,inactive: 0.022,inactive: 0.01,inactive: 0.03,inactive: 0.018,inactive: 0.043,inactive: -0.043,inactive: 0.007,inactive: 0.01,inactive: 0.011,inactive: -0.016
FAM122A (UniProt Q96E09),inactive: -0.045,inactive: 0.013,inactive: -0.063,inactive: 0.092,inactive: -0.025,inactive: -0.102,inactive: -0.026,inactive: 0.005,inactive: 0.014,inactive: 0.036,inactive: -0.034,inactive: 0.172,inactive: -0.029,inactive: 0.166,inactive: 0.189,inactive: 0.037,inactive: -0.02,inactive: 0.029,inactive: -0.004,inactive: -0.039
F5 (UniProt P12259),inactive: -0.011,inactive: -0.039,inactive: 0.035,inactive: 0.049,inactive: -0.011,inactive: 0.021,inactive: -0.05,inactive: -0.006,inactive: -0.104,inactive: -0.014,inactive: -0.028,inactive: -0.009,inactive: 0.049,inactive: 0.038,inactive: 0.037,inactive: -0.03,inactive: 0.02,inactive: 0.133,inactive: 0.048,inactive: 0.058
ERO1A (UniProt Q96HE7),inactive: -0.005,inactive: 0.008,inactive: -0.034,inactive: -0.069,inactive: -0.007,inactive: -0.024,inactive: 0.081,inactive: -0.041,inactive: 0.013,inactive: 0.047,inactive: 0.005,inactive: 0.006,inactive: 0.013,inactive: 0.004,inactive: -0.023,inactive: -0.011,inactive: 0.017,inactive: -0.002,inactive: -0.004,inactive: 0.011
FAIM isoform 2 (UniProt Q9NVQ4),inactive: -0.023,inactive: -0.028,inactive: 0.054,inactive: -0.103,inactive: -0.026,inactive: -0.054,inactive: -0.085,inactive: 0.103,inactive: -0.207,inactive: 0.04,inactive: -0.015,inactive: 0.012,inactive: 0.007,inactive: -0.043,inactive: 0.115,inactive: 0.036,inactive: 0.106,inactive: -0.029,inactive: -0.035,inactive: 0.235
FAM83A (UniProt Q86UY5),inactive: 0.038,inactive: -0.002,inactive: 0.035,inactive: -0.001,inactive: 0.003,inactive: 0.05,inactive: 0.103,inactive: 0.06,inactive: 0.01,inactive: -0.049,inactive: -0.095,inactive: -0.039,inactive: 0.061,inactive: -0.055,inactive: 0.015,inactive: 0.02,inactive: 0.07,inactive: 0.02,inactive: -0.013,inactive: 0.017
ESYT2 (UniProt H7BXI1),inactive: -0.047,inactive: -0.044,inactive: 0.046,inactive: -0.065,inactive: -0.036,inactive: -0.009,inactive: 0.037,inactive: -0.068,inactive: 0.033,inactive: -0.003,inactive: 0.02,inactive: 0.038,inactive: -0.02,inactive: 0.001,inactive: -0.072,inactive: 0.053,inactive: -0.1,inactive: -0.003,inactive: 0.029,inactive: -0.006
FADD (UniProt Q13158),inactive: -0.019,inactive: -0.004,inactive: 0.039,inactive: -0.078,inactive: 0.028,inactive: 0.056,inactive: -0.006,inactive: 0.011,inactive: 0.004,inactive: -0.016,inactive: -0.006,inactive: -0.001,inactive: 0.036,inactive: -0.126,inactive: -0.05,inactive: 0.024,inactive: -0.141,inactive: 0.003,inactive: -0.02,inactive: 0.006
EXOC4 (UniProt Q96A65),inactive: 0.079,inactive: 0.01,inactive: 0.055,inactive: -0.06,inactive: -0.055,inactive: 0.025,inactive: 0.022,inactive: -0.079,inactive: 0.006,inactive: 0.018,inactive: 0.03,inactive: -0.073,inactive: -0.053,inactive: 0.039,inactive: -0.084,inactive: 0.022,inactive: 0.078,inactive: 0.009,inactive: 0.008,inactive: -0.035
ERMAP (UniProt Q96PL5),inactive: 0.085,inactive: 0.006,inactive: -0.042,inactive: 0.035,inactive: -0.003,inactive: -0.012,inactive: -0.135,inactive: 0.134,inactive: 0.03,inactive: 0,inactive: -0.057,inactive: 0.025,inactive: 0.013,inactive: -0.081,inactive: -0.002,inactive: -0.029,inactive: -0.04,inactive: -0.016,inactive: 0.059,inactive: -0.054
F11R (UniProt Q9Y624),inactive: 0.012,inactive: 0.001,inactive: -0.016,inactive: -0.026,inactive: 0.009,inactive: -0.01,inactive: -0.133,inactive: 0.118,inactive: 0.03,inactive: -0.014,inactive: -0.054,inactive: 0.043,inactive: 0.027,inactive: 0.014,inactive: -0.01,inactive: -0.018,inactive: -0.038,inactive: -0.003,inactive: 0.029,inactive: 0.012
ESRRA (UniProt P11474),inactive: 0.058,inactive: 0.005,inactive: 0.041,inactive: 0.03,inactive: -0.075,inactive: -0.039,active: 0.569,inactive: -0.283,inactive: -0.055,inactive: 0.053,inactive: 0.167,inactive: -0.169,inactive: 0.033,inactive: -0.086,inactive: -0.04,inactive: 0.048,inactive: -0.072,inactive: -0.045,inactive: -0.029,inactive: 0.07

# Single records, from the list above. Order of values: log2 fold change [1] | log2 fold change [2] | log2 fold change [3] | log2 fold change [4] | log2 fold change [5] | log2 fold change [6] | log2 fold change [7] | log2 fold change [8] | log2 fold change [9] | log2 fold change [10] | log2 fold change [11] | log2 fold change [12] | log2 fold change [13] | log2 fold change [14] | log2 fold change [15] | log2 fold change [16] | log2 fold change [17] | log2 fold change [18] | log2 fold change [19] | log2 fold change [20]
# ESRRA (UniProt P11474) in the list: inactive: 0.058 | inactive: 0.005 | inactive: 0.041 | inactive: 0.03 | inactive: -0.075 | inactive: -0.039 | active: 0.569 | inactive: -0.283 | inactive: -0.055 | inactive: 0.053 | inactive: 0.167 | inactive: -0.169 | inactive: 0.033 | inactive: -0.086 | inactive: -0.04 | inactive: 0.048 | inactive: -0.072 | inactive: -0.045 | inactive: -0.029 | inactive: 0.07
# FADD (UniProt Q13158) in the list: inactive: -0.019 | inactive: -0.004 | inactive: 0.039 | inactive: -0.078 | inactive: 0.028 | inactive: 0.056 | inactive: -0.006 | inactive: 0.011 | inactive: 0.004 | inactive: -0.016 | inactive: -0.006 | inactive: -0.001 | inactive: 0.036 | inactive: -0.126 | inactive: -0.05 | inactive: 0.024 | inactive: -0.141 | inactive: 0.003 | inactive: -0.02 | inactive: 0.006
